Data from PubChem BioAssay AID248 (DTP/NCI, 2004).
The list does not hold the whole screen: it is rich in T/C values a quarter to a half above the control, in often repeated tests (any T/C) and in doses without a T/C. Further doses and runs are listed elsewhere. T/C: endpoint of the treated group in % of that of the vehicle group. Some doses have a count of surviving animals in place of a T/C: the source files T/C as zero there, which appears to mark a toxic dose or a test without result, not a measured value. Some survivor counts are full or nearly so, which does not show that the dose was tolerated: the source hardly ever lists a survival T/C far under the control, and the zero likely stands for such cases as well. Survivors were counted at the toxicity check, usually on the fifth day, unless a day is given; later deaths do not show. Schedule codes are those of the source, taken here to give the interval after Q, in days (D) or hours (H), and the number of doses after X. Some schedules carry Z or #; the key to these is not given. For survival time, the PubChem record calls one and a half times the control and up active, and a quarter to a half above the control has no call in these data; cut-offs in other NCI protocols can differ.

Test system: L1210 leukemia ip in BDF1 mice, survival T/C
Assay: NCI In Vivo Anticancer Drug Screen. Data for tumor model L1210 Leukemia (intraperitoneal) in B6D2F1 (BDF1) mice
Settings: T/C endpoint: mean survival time, higher T/C = longer survival

Question: Which results are given for C=C[N+](C)(C)C?
Answer: survivor count (dose: 80.0 mg/kg/injection, schedule: Q01DX001 (ip), vehicle: saline): 2 of 6; survivor count (dose: 100.0 mg/kg/injection, schedule: Q01DX001 (ip), vehicle: saline): 0 of 6; survivor count (dose: 200.0 mg/kg/injection, schedule: Q01DX001 (ip), vehicle: saline): 0 of 6; survivor count (dose: 400.0 mg/kg/injection, schedule: Q01DX001 (ip), vehicle: saline): 0 of 6

Question: With Cc1ccc(NC(=S)N2CCC(CCCC3CCN(C(=S)Nc4ccc(C)cc4C)CC3)CC2)c(C)c1 as the compound, how does the survivor count (dose: 400.0 mg/kg/injection, schedule: Q04DX003 (ip), vehicle: Klucel (hydroxypropylcellulose) (HPC)) read?
Answer: 6 of 6

Question: With O=C(Nc1ccc(CCNC2=NCCN2)cc1)c1ccc(C(=O)Nc2ccc(CCNC3=NCCN3)cc2)cc1 as the compound, how does the T/C (dose: 2.0 mg/kg/injection, schedule: Q01DX Z (ip), vehicle: water) read?
Answer: 137 % of control

Question: What about the survivor count (dose: 30.0 mg/kg/injection, schedule: Q01DX Z (ip), vehicle: water) of the same compound?
Answer: 0 of 6

Question: How did the survivor count (dose: 400.0 mg/kg/injection, schedule: Q04DX003 (ip), vehicle: saline with Tween-80) turn out when CCCCCCCCSCC(=O)O was run?
Answer: 1 of 6

Question: O=S(=O)(O)C(O)CC(c1ccccc1)S(=O)(=O)O (stereo not given) was tested. Which survivor count (dose: 200.0 mg/kg/injection, schedule: Q04DX002 (ip), vehicle: Klucel (hydroxypropylcellulose) (HPC)) did it give?
Answer: 3 of 3

Question: With Cc1ccc(C(SCC(N)C(=O)O)(c2ccccc2)c2ccccc2)cc1 (stereo not given) as the compound, how does the T/C (dose: 6.5 mg/kg/injection, schedule: Q01DX009 (ip), vehicle: saline) read?
Answer: 140 % of control

Question: And the survivor count (dose: 100.0 mg/kg/injection, schedule: Q01DX009 (ip), vehicle: other)?
Answer: 5 of 6

Question: And the survivor count (dose: 100.0 mg/kg/injection, schedule: Q01DX009 (ip), vehicle: saline)?
Answer: 7 of 10

Question: And the survivor count (dose: 200.0 mg/kg/injection, schedule: Q01DX009 (ip), vehicle: other)?
Answer: 4 of 6

Question: How did the survivor count (dose: 200.0 mg/kg/injection, schedule: Q01DX001 (ip), vehicle: carboxymethylcellulose (CMC)) turn out when CSc1ncnc2c1N=CNN2 was run?
Answer: 0 of 6

Question: What about the survivor count (dose: 400.0 mg/kg/injection, schedule: Q01DX001 (ip), vehicle: carboxymethylcellulose (CMC)) of the same compound?
Answer: 0 of 6
